Results published in paper PMC5799255 (Scientific Reports, 2018).
Where a sequence shows no end group, the ends are not given.

Legend:
peptide synthesis = settings: whole synthesis, TFA
peptide made by a vendor = settings: whole synthesis

Sequence | purity (crude or final not stated) (peptide synthesis; HCl for H5(61–90) V2) [%] | further results
EMIAAAIRAEKSRGGSSRQS | 50 | –
VGHNADLQIKLSIRRLLAAGVLKQTKGVGA | – | purity (crude or final not stated) (peptide synthesis): 81.4%; final purity (method not given) (peptide made by a vendor; HCl): 96.5%; final purity (method not given) (peptide made by a vendor; TFA): 95.5%
VLKQTKGVGASGSFRLAKSD | 78.1 | –
LSIRRLLAAGVLKQTKGVGA | 80.9 | –
EMIAAAIRAEKSRGGSSRQSIQKYIKSHYK | 81.9 | –
RVKASRRSASHPTYSEMIAAAIRAEKSRGG | 57.7 | –
